Laboratory results from patent publication US10189878B2 (priority 2014, dated 2019).
Read-outs that look alike come from different tables or passages of the source.

How the values were obtained:
[1] = test system: marburgvirus GP pseudovirions; format: cell-based, Marburg Musoke
Ebola virus (Kikwit) = format: cell-based, Zaire ebolavirus
[2] = test system: ebolavirus GP pseudovirions; format: cell-based, Zaire ebolavirus
[3] = format: physicochemical; details: pH 5.8
Marburg virus (Ci67) = format: cell-based
[4] = format: physicochemical; details: pH 5.8; remark: listed apart in the source
[5] = test system: vesicular stomatitis virus glycoprotein pseudotype (VSV); format: cell-based
[6] = read-out: IC50 against marburgvirus pseudotype
[7] = read-out: IC50 against ebolavirus pseudotype

Sequence | anti-marburgvirus activity better than eboIZN39IQ(D3) [1] [fold] | IC50 [1, 6] [µM] | IC50 ([1]; read-out: IC50 against marburgvirus pseudovirus) [µM] | infected cells compared to vehicle control (Ebola virus (Kikwit)) [%] | inhibition of entry of wild-type ebolavirus (Ebola virus (Kikwit); 10 µM) [%] | IC50 [2, 7] [µM] | IC50 ([2]; read-out: average IC50 against ebolavirus GP pseudovirus) [µM] | [θ222 nm] 25° C. [3] | [θ222 nm] 37° C. [3] | [θ222 nm] 50° C. [3] | activity against wild-type marburgvirus (Marburg virus (Ci67)) | Mobs/Mcalc 4° C. [4] | inhibition of wild-type ebolavirus entry (in words) (Ebola virus (Kikwit)) | anti-ebolavirus activity diminished relative to eboIZN39IQ [2] [fold] | IC50 ([2]; read-out: IC50 against ebolavirus GP pseudovirus) [µM] | activity against VSV glycoprotein pseudotype [5]
GHMDIKKEIEAIKKEQEAIKKKIEAIEKELRQLANETTQALQLFLRATTELRTFSILNRKAIDFLLQRMKQIEDKIEEIESKQKKIENEIARIKKLIGERY [eboIZN39IQ] | ~2 | 5.4 | 5.7 | 33 | 67 | 0.26 | 0.32 | −29,400 deg cm^2 dmol^−1 | −27,900 deg cm^2 dmol^−1 | −27,100 deg cm^2 dmol^−1 | no activity | 3.24 | – | – | – | –
GHMDIKKEIEAIKKEQEAIKKKIEAIEKELRQLANETTQDLQLFLRDTTELRTFSILNRKDIDFLLQRMKQIEDKIEEIESKQKKIENEIARIKKLIGERY [eboIZN39IQ(D3)] | – | 11 | – | – | – | 8.9 | – | – | – | – | – | – | no inhibition | ~30 | 11 | not seen
